# In PMC12221590:
# Chains of the proteins cited; added tags and fusions are not shown.
# UniProt Q5M9Q1: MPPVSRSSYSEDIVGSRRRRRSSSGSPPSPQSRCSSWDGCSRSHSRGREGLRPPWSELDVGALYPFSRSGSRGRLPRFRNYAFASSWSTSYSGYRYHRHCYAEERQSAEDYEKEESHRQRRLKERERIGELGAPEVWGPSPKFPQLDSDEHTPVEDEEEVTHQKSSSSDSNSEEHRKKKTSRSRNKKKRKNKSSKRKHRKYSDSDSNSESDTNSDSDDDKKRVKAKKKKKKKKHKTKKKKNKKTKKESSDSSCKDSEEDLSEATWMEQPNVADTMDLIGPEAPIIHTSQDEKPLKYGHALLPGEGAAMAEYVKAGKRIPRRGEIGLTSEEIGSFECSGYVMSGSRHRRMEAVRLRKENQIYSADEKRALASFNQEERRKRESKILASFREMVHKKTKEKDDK
# UniProt P19474: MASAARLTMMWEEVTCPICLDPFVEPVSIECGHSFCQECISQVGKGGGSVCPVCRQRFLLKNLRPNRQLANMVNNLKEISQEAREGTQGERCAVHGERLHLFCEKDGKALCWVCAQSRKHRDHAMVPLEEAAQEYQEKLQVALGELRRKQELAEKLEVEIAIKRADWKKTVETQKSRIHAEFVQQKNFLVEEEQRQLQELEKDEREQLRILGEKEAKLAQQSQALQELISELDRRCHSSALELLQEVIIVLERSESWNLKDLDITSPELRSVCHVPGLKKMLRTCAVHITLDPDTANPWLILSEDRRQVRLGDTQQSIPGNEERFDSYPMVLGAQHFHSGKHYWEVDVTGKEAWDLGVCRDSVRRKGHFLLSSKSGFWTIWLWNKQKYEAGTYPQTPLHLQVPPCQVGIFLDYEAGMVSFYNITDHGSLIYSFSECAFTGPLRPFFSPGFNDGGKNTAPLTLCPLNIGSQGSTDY
# These are yes or no findings as the source states them, for the method shown. In cells and extracts the contact can be indirect. Some results given as binding are weak or reduced against the parent protein; the word gives no strength.
# Biological target: GFP-tagged NF-kappa-B-activating protein-like (NKAPL) (human) (UniProt Q5M9Q1)
# Test: co-IP; A549 lysates incubated with anti-GFP antibodies; immunoprecipitates examined by western blotting with antibodies against TRIM21 and GFP
substance,measurement,value
tripartite motif-containing 21 (TRIM21) (from UniProt P19474 1-475),binding,binds
